No constants are given. Whether binding was seen depends on the method and setting. Binding calls can cover weak binding; strength is not graded here. For some of these results: In cells and extracts the contact can be indirect. For some of these results: Sequences can lack the tags named with a protein.

The target of assay [1] is T1, OsGRF4 (rice (Oryza sativa ssp. japonica, Nipponbare)) (UniProt Q6ZIK5).
T1 sequence: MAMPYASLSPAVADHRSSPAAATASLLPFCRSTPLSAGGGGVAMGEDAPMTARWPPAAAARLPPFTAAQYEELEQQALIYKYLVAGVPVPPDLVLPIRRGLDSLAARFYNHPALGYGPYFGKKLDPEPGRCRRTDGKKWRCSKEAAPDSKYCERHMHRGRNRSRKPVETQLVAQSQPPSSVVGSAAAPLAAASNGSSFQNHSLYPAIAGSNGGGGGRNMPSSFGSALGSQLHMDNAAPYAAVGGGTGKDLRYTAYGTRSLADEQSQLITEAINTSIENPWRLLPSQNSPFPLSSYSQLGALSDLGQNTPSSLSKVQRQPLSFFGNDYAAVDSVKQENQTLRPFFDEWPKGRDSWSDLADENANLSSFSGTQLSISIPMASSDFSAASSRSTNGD
The assay can be described thus: two-hybrid; prey vector pGADT7 and bait vector pGBKT7 co-transformed into yeast AH109; grown on SD-Leu-Trp, interaction tested on SD-Ade-His-Leu-Trp solid media.

Assay [2] has as its target T2, cYFP-OsGRF4 (rice (Oryza sativa ssp. japonica, Nipponbare)) (UniProt Q6ZIK5).
T2 sequence: T1 sequence
The assay can be described thus: split reporter; BiFC: nYFP and cYFP fusions co-infiltrated by Agrobacteria into N. benthamiana leaves; YFP signal by confocal microscopy.

For assay [3], the target named is T3, cYFP-OsGRF6 (rice (Oryza sativa ssp. japonica, Nipponbare)) (UniProt Q6AWY3).
T3 sequence: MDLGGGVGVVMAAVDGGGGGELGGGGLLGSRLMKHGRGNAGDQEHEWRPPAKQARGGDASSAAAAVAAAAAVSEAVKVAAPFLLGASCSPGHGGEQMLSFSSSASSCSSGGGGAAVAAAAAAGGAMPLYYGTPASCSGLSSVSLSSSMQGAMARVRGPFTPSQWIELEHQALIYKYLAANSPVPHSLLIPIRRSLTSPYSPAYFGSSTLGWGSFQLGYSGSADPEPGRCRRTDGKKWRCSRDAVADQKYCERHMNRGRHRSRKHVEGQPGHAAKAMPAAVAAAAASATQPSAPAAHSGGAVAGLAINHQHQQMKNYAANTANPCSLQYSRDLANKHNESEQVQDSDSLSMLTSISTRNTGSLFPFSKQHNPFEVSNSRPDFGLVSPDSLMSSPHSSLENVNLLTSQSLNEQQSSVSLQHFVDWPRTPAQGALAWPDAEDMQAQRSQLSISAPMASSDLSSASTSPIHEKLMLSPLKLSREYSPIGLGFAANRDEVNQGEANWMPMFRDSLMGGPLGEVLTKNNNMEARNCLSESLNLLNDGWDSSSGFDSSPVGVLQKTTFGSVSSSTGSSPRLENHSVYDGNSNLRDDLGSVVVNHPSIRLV
Described as above.

The target in assay [4] is T4, OsGRF6 (rice (Oryza sativa ssp. japonica, Nipponbare)) (UniProt Q6AWY3).
T4 sequence: T3 sequence
Briefly: two-hybrid; prey vector pGADT7 and bait vector pGBKT7 co-transformed into yeast AH109; grown on SD-Leu-Trp, interaction tested on SD-Ade-His-Leu-Trp solid media.

Regarding OsGIF1, the binding result in assay [1] is listed as “binds”.
For the substance nYFP-OsGIF1, the binding entry in assay [2] is “binds”.
Turning to nYFP-OsGIF3, the binding entry in assay [3] and in assay [2] was “binds” in each case.
nYFP-OsGIF2: the binding result in assay [2] was “binds”.
OsGIF3: the binding result in assay [4] and in assay [1] was “binds” each time.
